Experimental data from article PMC6925144, “A prospective compound screening contest identified broader inhibitors for Sirtuin 1” (Scientific Reports, 2019).
In all, about 3,200 compounds were measured (“TSA(without NAD+) / Primary screening (TSA) / delta Tm (K)”: median about -0.07, highest 2% from about 0.37 on). The list shows a part of the results.

Chains of the proteins cited; added tags and fusions are not shown. Residues count along the entry.
UniProt Q96EB6, 2-747 limits assumed: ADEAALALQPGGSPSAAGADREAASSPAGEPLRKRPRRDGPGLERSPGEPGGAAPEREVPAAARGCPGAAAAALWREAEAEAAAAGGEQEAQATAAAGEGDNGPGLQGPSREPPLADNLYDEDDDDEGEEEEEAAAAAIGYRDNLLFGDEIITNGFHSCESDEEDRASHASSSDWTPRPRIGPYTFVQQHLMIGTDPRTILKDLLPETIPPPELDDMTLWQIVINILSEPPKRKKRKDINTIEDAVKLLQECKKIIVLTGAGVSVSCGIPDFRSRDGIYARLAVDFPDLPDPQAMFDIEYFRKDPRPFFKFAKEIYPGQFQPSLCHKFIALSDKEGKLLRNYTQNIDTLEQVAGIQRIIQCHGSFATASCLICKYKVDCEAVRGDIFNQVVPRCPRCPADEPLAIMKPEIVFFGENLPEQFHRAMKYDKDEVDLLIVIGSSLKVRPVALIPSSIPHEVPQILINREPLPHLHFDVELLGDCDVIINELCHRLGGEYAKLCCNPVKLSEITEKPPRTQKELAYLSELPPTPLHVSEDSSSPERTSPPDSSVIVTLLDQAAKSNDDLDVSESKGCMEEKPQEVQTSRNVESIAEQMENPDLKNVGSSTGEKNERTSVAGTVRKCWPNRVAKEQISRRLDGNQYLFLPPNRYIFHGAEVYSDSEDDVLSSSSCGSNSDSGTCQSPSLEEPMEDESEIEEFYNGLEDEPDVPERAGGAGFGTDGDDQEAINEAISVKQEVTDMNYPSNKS

Target: NAD-dependent deacetylase Sirtuin 1 (human, UniProt Q96EB6)
Assay: primary screen, delta tm
Design: single well (n = 1)
Details: 10 µM
In short: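 Thermal shift of Sirtuin 1 measured without NAD+, compound at 10 µM (n = 1); value is ΔTm, with hits defined as ΔTm > 0.45 K or < −1.5 K. Hits retested at 5, 10, 20 µM (n = 4) and counterscreened on bovine carbonic anhydrase and ABL1 SH2 domain.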

SMILES	TSA(without NAD+) / Primary screening (TSA) / delta Tm (K)
CCN1C(=O)c2oc3ccccc3c(=O)c2C1c1ccc(Cl)cc1 (centres unmarked)	-0.08 K
O=C(CCc1ccccc1)NCCNc1cnccn1	-0.01 K
C=CCn1c(N)nnc1SCC1CC(C(=O)OC)=C(C)O1 (centres unmarked)	-0.02 K
Sc1ccc(Cl)cn1	-0.15 K
CC1CCc2c(sc3ncn(CC(=O)c4ccc5c(c4)CCC5)c(=O)c23)C1 (centres unmarked)	0.19 K
Cc1ccc(C2C(C(=O)c3sc(C)nc3C)=C(O)C(=O)N2CCCN2CCOCC2)cc1 (centres unmarked)	-0.03 K
CC(C)(C)OC(=O)NCC1CCCN1c1ccc(Br)cc1[N+](=O)[O-] (centres unmarked)	-0.03 K
CN(c1ccc(OC(=O)c2cc(Cl)nc3ccccc23)cc1)S(=O)(=O)c1ccccc1	-0.17 K
CCOC(=O)N1CCN(Cc2ccc(OCc3cccnc3)cc2)CC1	-0.03 K
CC(=O)Nc1ccc2c(COC(=O)C34CC5CC(C3)CC(c3ccccc3)(C5)C4)cc(=O)oc2c1	-0.02 K
CCCNC(=O)c1ccc2[nH]c3c(c2c1)CC(C)CC3 (centres unmarked)	0.16 K
CC(C)c1nnc(CSc2nccn2Cc2ccccn2)o1	-0.12 K
CC(N)CC(N)=O (centres unmarked)	-0.14 K
O=C(OCc1nnc(C(=O)NCc2ccc(F)cc2)s1)c1cc2c(s1)CCCC2	-0.21 K
CN1CC(Nc2c(C#N)cnc3ccc(Cl)cc23)CCC1=O (centres unmarked)	-0.02 K
COc1ccc(-c2ccc(/C=C3\NC(=S)NC3=O)o2)c([N+](=O)[O-])c1	-0.07 K
CC(Oc1cccc(/C=C2/CCc3cc(O)ccc3C2=O)c1)C(=O)O (centres unmarked)	-0.02 K
CC(=O)NC12CC3CC(C1)CC(C(=O)OCC(=O)N(CCc1ccccc1)CCc1ccccc1)(C3)C2	-0.05 K
COc1ccc(N(C)S(=O)(=O)c2cccc(C(=O)Nc3ccc(-n4cnnn4)cc3)c2)cc1	0.59 K
CC(C)(C)C(=O)N1CCc2cnccc21	-0.08 K

Reprinted at random: 3 compounds from above, in no set order.
SMILES	TSA(without NAD+) / Primary screening (TSA) / delta Tm (K)
CC(C)(C)OC(=O)NCC1CCCN1c1ccc(Br)cc1[N+](=O)[O-] (centres unmarked)	-0.03 K
CCCNC(=O)c1ccc2[nH]c3c(c2c1)CC(C)CC3 (centres unmarked)	0.16 K
CC(C)(C)C(=O)N1CCc2cnccc21	-0.08 K

The list goes on:

SMILES	TSA(without NAD+) / Primary screening (TSA) / delta Tm (K)
COCC(=O)N1CCN(Cc2c(O)ccc3ccc(OC)cc23)CC1	-0.12 K
Cc1ccccc1-c1nnn(Cc2cc(=O)oc3c(C)c(C)ccc23)n1	-0.12 K
NC(=O)c1cccc(COC(=O)c2ccc3[nH]c(C(F)F)nc3c2)c1	0.02 K
O=C1/C(=C/c2ccc(Br)cc2F)Cc2c(O)cccc21	-0.03 K
COc1ccc(CNC(=S)NC2CCCCC2)cc1OC	-0.23 K
Cc1cc(C=C2C(=O)NC(=S)NC2=O)c(C)n1-c1ccccc1C(F)(F)F	-1.48 K
Nc1nc2cc(C(=O)O)ccc2[nH]1	-0.12 K
CN(c1ccccc1C(N)=O)S(=O)(=O)c1cccc(Cl)c1	-0.17 K
CCCOc1ccc(C2C(C(=O)c3ccc(F)cc3)=C(O)C(=O)N2CCCN2CCOCC2)cc1 (centres unmarked)	0.07 K
Cc1ccccc1-c1cc(-c2ccccc2)c2cc([N+](=O)[O-])ccc2n1	0.29 K
Cc1cc2nc(N3CCC(CNC(=O)OC(C)(C)C)CC3)c3ccccc3n2n1	-0.22 K
CC(NS(=O)(=O)c1cccc(C(=O)OCC(=O)Nc2sccc2C#N)c1)C12CC3CC(CC(C3)C1)C2 (centres unmarked)	0.36 K
COc1ccccc1S(=O)(=O)NCc1ccc(C(=O)NCC23CC4CC(CC(C4)C2)C3)cc1	0.02 K
Cn1c(Cn2nnc3ccccc3c2=O)nc2cc(Cl)ccc21	0.02 K
O=C(CN1CCN(C(=O)c2ccc(-c3ccc(Cl)cc3)o2)CC1)Nc1cccc(F)c1	0.28 K
Cc1nc(-c2ccc(CCNC(=O)c3ccc(-n4cncn4)cc3)s2)cs1	-0.11 K
Cc1cc(C)nc(NS(=O)(=O)c2ccc(NN=C3C(=O)NC(=S)NC3=O)cc2)n1	-0.08 K
NC(=O)c1ccc(C(=O)OCC(=O)c2cc3ccccc3o2)cc1	-0.38 K
Cc1ccc(C)n1-c1sc2c(c1C#N)CCC(C)C2 (centres unmarked)	-0.12 K
Cn1cc(C(N)=O)cc1C(=O)OC1CCc2ccc(F)cc21 (centres unmarked)	-0.01 K

SMILES	TSA(without NAD+) / Primary screening (TSA) / delta Tm (K)
Cc1nc(CN2CCN(Cc3c(-c4ccccc4)nc4sccn34)CC2)cs1	0.02 K
NC(=O)c1ccc(CSc2nc(CC(=O)O)cs2)cc1	-0.03 K
C=CCn1c(SCc2nc(C)c(-c3ccc(Cl)cc3)o2)nnc1-c1ccco1	-0.14 K
CN1CCc2cc(NC(=O)COc3ccc(N(C)S(=O)(=O)c4cccs4)cc3)ccc21	-0.08 K
Cn1c(N)c(N2CCNCC2)c(=O)n(C)c1=O	0.02 K
NCCC1CC1	-0.08 K
O=C(O)C1CC(=O)N(c2ccc(S(=O)(=O)Nc3c(F)cccc3F)cc2)C1 (centres unmarked)	0.03 K
CCN(Cc1ccccc1)C(=O)CSc1nncn1-c1ccccc1	-0.33 K
Cc1ccc(C23CC4CC(CC(C(=O)OC(C)C(=O)Nc5ccc(S(N)(=O)=O)cc5)(C4)C2)C3)cc1C (centres unmarked)	0.48 K
COc1ncnc2c1CN(Cc1c[nH]nc1-c1ccc(F)cc1)CC2	-0.12 K
CCCOc1ccc(C(=O)C2=C(O)C(=O)N(CCCN3CCOCC3)C2c2ccccc2F)cc1 (centres unmarked)	-0.27 K
CC(=O)N1N=C(c2ccc(NS(C)(=O)=O)cc2)CC1c1ccc(F)c(Cl)c1 (centres unmarked)	-0.22 K
Cc1ccc(NC(=O)COC(=O)c2ccc(-n3nnc4ccccc43)c([N+](=O)[O-])c2)cc1C	0.22 K
Cc1nc2ccccc2nc1SCc1cc(=O)n2ccsc2n1	0.02 K
Clc1ccc(C(SCc2ncc(-c3ccccc3)o2)c2ccccc2)cc1 (centres unmarked)	-0.08 K
CN(C)c1noc(C2CC(=O)N(c3ccc(Cl)c(F)c3)C2)n1 (centres unmarked)	-0.13 K
COc1ccc2nc3ccccc3nc2c1N	-0.14 K
Cn1c(-c2ccccc2)c(C(=O)CCl)c2ccccc21	-0.13 K
CN(c1cccc(Cl)c1)S(=O)(=O)c1cccc(C(=O)Oc2ccc3c4c(c(=O)oc3c2)CCC4)c1	0.02 K
